# The campaign covered roughly 410,000 compounds. About 18,000 (4.4%) were called active. Inconclusive results, whose numbers are uncertain, are shown with a selection of clear calls. Rule as the data show it: active = activity change below about -60%; inconclusive = no clear call, values can overlap the other calls; inactive = above about -39%.
# Assay: qHTS Assay for inhibitors of the human cytomegalovirus (HCMV)
# Conditions: HFF cells, HCMV-luciferase reporter, 72 h; at 57.5 µM; active compounds read low
# In short: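 Two compound doses tested in HFFs infected with HCMV-luciferase, MOI 1 PFU/cell, 72 h at 37C. Lysate luminescence read with OneGlo; data normalized against buffer-only and 10uM Salinomycin inhibitor controls.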
# % is scaled to controls: 0 for no effect and ±100 for the full control effect.
row,Compound,"activity change, negative = inhibition"
1,CCOCCC(=O)Nc1ccc2c(c1)c(=O)n(C)n2-c1ccc2ccccc2c1,active: -74.6%
2,CCCCCCN1C[C@H](n2cc(COC(=O)c3ccccc3)nn2)[C@@H](O)C[C@@H]1c1ccc(Cl)cc1,inconclusive: -51.9%
3,CCOC(=O)C1=C(O)/C(=C/c2ccc(CNC(=O)C(=O)Nc3ccc(C)cc3)o2)N=C1C,inactive: 7.84%
4,OCCNc1nc(Nc2ccc(Cl)cc2)nc(N2CCCC2)n1,inconclusive: -41.1%
5,Cc1cc(C(F)F)n2nc(C(=O)Nc3ccc(F)c(Cl)c3)nc2n1,inconclusive: -45.2%
6,CC(C)N(C(=O)[C@H]1C[C@H](CC(=O)NCc2cccc(C(F)(F)F)c2)C(=O)N2CCc3c([nH]c4ccc(Cl)cc34)[C@]12C)C(C)C,inconclusive: -59.4%
7,CSc1ccc(-c2cccc([N+](=O)[O-])c2)nn1,inactive: 103%
8,CC(=O)Nc1ccc(OS(=O)(=O)c2cc(Cl)ccc2C)cc1,inconclusive: -52.8%
9,CN(C(=O)c1ccccc1C(=O)OCC(=O)Nc1ccccc1)c1ccccc1,inactive: -15.8%
10,CCOC(=O)[C@]12CCCC=C1N(Cc1ccccc1)C(=O)[C@H](CC(=O)NCc1ccccc1)C2,inconclusive: -47.5%
11,Cc1cccc([C@H]2[C@@H]3C=CCC[C@@H]3C(=O)N2Cc2ccccc2)c1,inactive: 6.79%
12,C=CCc1ccccc1OCC(O)CN1CCN(CCN2C(=O)c3cccc4cccc(c34)C2=O)CC1 (stereo unspecified),inactive: -38.3%
13,O=C(Cc1ccc(Cl)cc1Cl)NC1CCCCCC1,inconclusive: -59.2%
14,Cc1ccc(NC(=O)C(=O)NCC2CCCO2)cc1C (stereo unspecified),inactive: 0%
15,COc1ccc(CC(=O)Nc2sc3c(c2C(=O)Nc2c(C)cccc2C)CCCCC3)cc1,active: -70.4%
16,CCC1CCCCN1C(=S)Nc1cccc(S(=O)(=O)N(C)C)c1 (stereo unspecified),inconclusive: -44.2%
17,Cc1ccc(CS(=O)(=O)CC(C)(O)c2ccccc2)cc1 (stereo unspecified),inconclusive: -42.3%
18,CCn1c(C)c(C)c2cc(C(=O)NCCc3ccc(C)cc3)ccc21,inconclusive: 0%
19,Cc1cc(C)cc(N2C(=O)CN(Cc3sccc3C)C2=S)c1,inconclusive: -57.3%
20,c1csc(Cc2nc3ccccc3[nH]2)c1,inactive: 125%
21,CNC(=O)Nc1cccc(-c2cc(-c3c(Cl)cccc3Cl)no2)c1,active: -74.4%
22,COc1ccc(S(=O)(=O)N2CCN(C(=O)c3cc4c(s3)CCC4)CC2)cc1,active: -78%

row,Compound,"activity change, negative = inhibition"
1,CCCCN(CC)C(=O)Cn1cnc2ccc(S(=O)(=O)N3CCC(C)CC3)cc2c1=O,inconclusive: -44.9%
2,COc1ccc(NC(C)=O)cc1NC(=O)c1ccc(Cl)cc1,inconclusive: -42.4%
3,C=CCn1c(N)c(C(=O)NCC2CCCO2)sc1=S (stereo unspecified),active: -62.1%
4,O=C(Nc1ccc2nn(-c3ccccc3)nc2c1)c1ccc(-c2cccc(Cl)c2)o1,active: -74.6%
5,CC(C)=CCN1CCN(CCC2=C(C)CCCC2(C)C)CC1CCO (stereo unspecified),active: -66.3%
6,O=C(Cc1cccc(C(F)(F)F)c1)N1CCCC1,inactive: 4.5%
7,Cc1ccc(NC(=O)C(C)SCC(=O)Nc2ccc(F)cc2)cc1S(=O)(=O)N1CCOCC1 (stereo unspecified),inactive: -28%
8,CC1CCN(CCCn2c(=S)[nH]c3c(sc4ccc([N+](=O)[O-])cc43)c2=O)CC1,inactive: 8.55%
9,COc1ccc(C(=O)C(C)OC(=O)CCN2C(=O)C3CC=CCC3C2=O)cc1 (stereo unspecified),inconclusive: 0%
10,CCCCOCc1cc(CN2CCN(c3cccc(Cl)c3)CC2)c(O)c2ncccc12,active: -100%
11,O=S(=O)(/N=C(/Nc1ccccn1)c1ccccc1)c1ccc(F)cc1,inactive: -24.5%
12,COc1ccc(CCNC(=O)CCS(=O)(=O)c2ccc3c(c2)oc(=O)n3C)cc1OC,inconclusive: -56%
13,CCn1c(=O)n(CC)c2cc(N3CCCCC3)c(NC(=O)Nc3cc(Cl)ccc3OC)cc21,inconclusive: -40.3%
14,CCOC(=O)c1c(C)[nH]c(CCC(=O)Nc2ccccc2C(=O)OC)c1C,active: -72.6%
15,CC(C)C(=O)Nc1ccc2nc(SCCOc3ccccc3)sc2c1,inactive: -26.2%
16,Cc1ccc(NCC(=O)N/N=C/c2cccc(Oc3ccccc3)c2)cc1,inconclusive: -49.4%
17,O=C(NCCCC1CCCC1)C1CCC(=O)N(Cc2cccc(F)c2)C1 (stereo unspecified),inconclusive: -52.5%
18,NS(=O)(=O)c1ccc(CCNC(=O)CN2CCN(Cc3cccc4ccccc34)CC2)cc1,inconclusive: -56.3%
19,CCCCn1c(N)c(N(Cc2ccccc2OC)C(=O)c2sccc2C)c(=O)[nH]c1=O,inactive: -25.4%
20,O=C(NCCOc1ccc(Cl)cc1)C1CC(=O)N(c2ccc(F)cc2)C1 (stereo unspecified),inconclusive: -51.8%
21,C=C(C)COc1ccc(-c2n[nH]c(C)c2-c2ccc(OC)c(OC)c2)c(O)c1,active: -83.8%
22,O=C1CCN(Cc2ccccc2)S(=O)(=O)c2ccc(C(F)(F)F)cc21,inconclusive: -53.8%

row,Compound,"activity change, negative = inhibition"
1,c1ccc2c(c1)nnn2-c1ncnc2sc3c(c12)CCCC3,inconclusive: -49.8%
2,COc1ccc(S[C@]2(C(=O)NCC(F)(F)F)CC(=O)N[C@@H]2c2ccc(OC)cc2)cc1,inactive: 0.556%
3,CCOc1cc(/C=N/NS(=O)(=O)c2ccccc2)ccc1OS(=O)(=O)c1ccc(C)cc1,inactive: 18.6%
4,N#Cc1cccc(NC(=O)C2CCN(c3ncccn3)CC2)c1,inconclusive: -53.6%
5,CC12CCC(C(=O)N(c3cccc(Cl)c3)C1=O)C2(C)C (stereo unspecified),inconclusive: -42.9%
6,COc1ccc(S[C@]2(C(=O)N3CCCC3)CC(=O)N(c3ccc(Cl)cc3)[C@@H]2c2ccc(OC)cc2)cc1,inactive: -20.1%
7,CC(=O)c1cnn(-c2c(Cl)cc(Cl)cc2Cl)c1C,inconclusive: -43.6%
8,O=C(CCCc1ccccc1)Nc1ccnn1C1CCN(Cc2ccc(Cl)cc2)CC1,inconclusive: -56.8%
9,COC(=O)c1c(NC(=O)COc2cc(C)ccc2C(C)C)sc2c1CCC(C)C2 (stereo unspecified),inconclusive: -41.8%
10,C=CCc1c(C)nc(SC)nc1Nc1ccc(C)cc1,inconclusive: -48.2%
11,O=C(Nc1cccc(S(=O)(=O)N2CCCCC2)c1)c1ccc(Cl)nc1,inconclusive: -48.3%
12,FC(F)(F)c1nc2ccccc2n2c(-c3ccc(Cl)cc3)nnc12,active: -106%
13,O=C1C(C2=C(O)c3ccccc3C2=O)=Nc2ccccc21,active: -78%
14,CN1CCCCCC1=Nc1ccccc1C#N,inconclusive: -57.1%
15,Clc1nc(Nc2ccc(N3CCOCC3)cc2)c2ccccc2n1,active: -71.7%
16,Cc1c(N2C(=O)/C(=C\c3ccccc3O)SC2=S)c(=O)n(-c2ccccc2)n1C,inactive: -26.5%
17,O=[N+]([O-])c1ccc(-[n+]2c(-c3ccccc3)cc(-c3ccccc3)cc2-c2ccccc2)cc1,inconclusive: -49%
18,O=C(c1ccc(N2CCCC2=O)cc1)N1CCN(c2ccccc2)CC1,inconclusive: -55.4%
19,CCc1ccccc1NC(=O)C1c2ccccc2Oc2ccccc21,inconclusive: -47%
20,COc1ccc2nc(NC(=S)N(C)C)sc2c1,inconclusive: -58.9%
21,Fc1ccc(Cn2nnnc2C(c2cccs2)N2CCCCCC2)cc1 (stereo unspecified),active: -74.3%
22,Cc1cccc(-c2nc(SCC(=O)Nc3ccc4c(c3)OCO4)c(-c3ccccc3)[nH]2)c1,inconclusive: -42.1%

# Random excerpt: 2 records from the list.
row,Compound,"activity change, negative = inhibition"
3,CCOc1cc(/C=N/NS(=O)(=O)c2ccccc2)ccc1OS(=O)(=O)c1ccc(C)cc1,inactive: 18.6%
19,CCc1ccccc1NC(=O)C1c2ccccc2Oc2ccccc21,inconclusive: -47%

# (more compounds)

row,Compound,"activity change, negative = inhibition"
1,Cc1nc(Nc2ccc3c(c2)OCO3)c2oc3ccccc3c2n1,inactive: 14.2%
2,CCN(CC)CCNC(=O)C1c2cc(OC)c(OC)cc2C(=O)N(C)C1c1cccs1 (stereo unspecified),inconclusive: -47.2%
3,CCCc1nc2ccc(NC(=O)c3cccs3)cc2c(=O)n1Cc1ccc(Cl)cc1,inactive: 0%
4,COc1ccc([N+](=O)[O-])cc1N(CC(=O)NC(C(C)C)C(C)C)S(C)(=O)=O,inactive: -7.41%
5,CCCn1c(=O)c2sccc2n2c(CCCC(=O)Nc3cccc(CC)c3)nnc12,inconclusive: -57.8%
6,CCOc1ccc(C2c3[nH]c4ccccc4c3CCN2CCCn2cccn2)cc1 (stereo unspecified),inactive: 20%
7,COCCNC(=O)Cn1c(=O)n(CCCC(=O)NCc2ccc3c(c2)OCO3)c(=O)c2sccc21,inactive: -1.97%
8,CN(C)CC(=O)N[C@@H]1CC[C@@H](CC(=O)NCCN2CCCCC2)O[C@@H]1CO,active: -100%
9,CCCCCCN1C(=O)CC(NC(=O)OCC2c3ccccc3-c3ccccc32)C/C=C\C1C(C)C (stereo unspecified),inconclusive: -51.6%
10,C/C(=N/NC(=O)c1ccoc1C)c1cccc(NC(=O)C(F)(F)F)c1,inactive: 13%
11,O=C(Oc1ccc(Cl)c2cccnc12)N1CCCCCC1,active: -100%
12,C[C@@]12CC(=O)NC1N(C(=O)c1cccc(C(F)(F)F)c1)C(c1ccccc1OC(=O)c1cccc(C(F)(F)F)c1)C2 (stereo partly specified),inactive: -27.7%
13,CSc1nccc(Oc2cccc(C#N)c2)n1,active: -61.3%
14,CC(C)(C)N1C(=O)c2ccc(C(=O)Nc3cc(C(=O)O)cc(C(=O)O)c3)cc2C1=O,inactive: -8.33%
15,CCOc1ccc(N2C(=O)CC(SCC(=O)O)C2=O)cc1 (stereo unspecified),inconclusive: -54.5%
16,CSc1nnc(C(C)(C)C)c(=O)n1/N=C/c1ccc(Cl)cc1,inactive: 3.74%
17,CC(C)CC(=O)NNC(=O)c1ccc(Cl)cc1,inconclusive: -42.3%
18,C[C@@H]1CN([C@H](C)CO)C(=O)CCCn2nncc2CO[C@H]1CN(C)S(=O)(=O)c1ccccc1,inactive: 0.273%
19,Cc1nnc2ccc(-c3cccc(NC(=O)c4ccc(Br)o4)c3)nn12,inconclusive: -41.5%
20,N#CC(=C1C=CC(=NO)C(Cl)=C1)c1ccc(Cl)cc1,active: -74%

# From PubChem BioAssay AID1259415 (National Center for Advancing Translational Sciences (NCATS), 2018)
